Hit rate of the full screen: of about 290,000 compounds, about 570 (0.2%) were called active. Inconclusive results, whose numbers are uncertain, are shown with a selection of clear calls. Rule as the data show it: active = inhibition mostly above about 51% (no sharp cut-off); inconclusive = no clear call, values can overlap the other calls; inactive = mostly below about 53%.
These compounds were tested against Voltage-dependent N-type calcium channel subunit alpha-1B (Homo sapiens) (UniProt Q00975) (assay: disruptors of CaV2.2 binding to Mint1 – biochemical, HTRF (AID 2073)). Conditions: HTRF protein-protein interaction, Mint1-CaV2.2; at 20 µM; active compounds read high.

Sequences of proteins named here, by UniProt entry; tags and fusion partners are left off.
UniProt Q00975, whole entry, looked up: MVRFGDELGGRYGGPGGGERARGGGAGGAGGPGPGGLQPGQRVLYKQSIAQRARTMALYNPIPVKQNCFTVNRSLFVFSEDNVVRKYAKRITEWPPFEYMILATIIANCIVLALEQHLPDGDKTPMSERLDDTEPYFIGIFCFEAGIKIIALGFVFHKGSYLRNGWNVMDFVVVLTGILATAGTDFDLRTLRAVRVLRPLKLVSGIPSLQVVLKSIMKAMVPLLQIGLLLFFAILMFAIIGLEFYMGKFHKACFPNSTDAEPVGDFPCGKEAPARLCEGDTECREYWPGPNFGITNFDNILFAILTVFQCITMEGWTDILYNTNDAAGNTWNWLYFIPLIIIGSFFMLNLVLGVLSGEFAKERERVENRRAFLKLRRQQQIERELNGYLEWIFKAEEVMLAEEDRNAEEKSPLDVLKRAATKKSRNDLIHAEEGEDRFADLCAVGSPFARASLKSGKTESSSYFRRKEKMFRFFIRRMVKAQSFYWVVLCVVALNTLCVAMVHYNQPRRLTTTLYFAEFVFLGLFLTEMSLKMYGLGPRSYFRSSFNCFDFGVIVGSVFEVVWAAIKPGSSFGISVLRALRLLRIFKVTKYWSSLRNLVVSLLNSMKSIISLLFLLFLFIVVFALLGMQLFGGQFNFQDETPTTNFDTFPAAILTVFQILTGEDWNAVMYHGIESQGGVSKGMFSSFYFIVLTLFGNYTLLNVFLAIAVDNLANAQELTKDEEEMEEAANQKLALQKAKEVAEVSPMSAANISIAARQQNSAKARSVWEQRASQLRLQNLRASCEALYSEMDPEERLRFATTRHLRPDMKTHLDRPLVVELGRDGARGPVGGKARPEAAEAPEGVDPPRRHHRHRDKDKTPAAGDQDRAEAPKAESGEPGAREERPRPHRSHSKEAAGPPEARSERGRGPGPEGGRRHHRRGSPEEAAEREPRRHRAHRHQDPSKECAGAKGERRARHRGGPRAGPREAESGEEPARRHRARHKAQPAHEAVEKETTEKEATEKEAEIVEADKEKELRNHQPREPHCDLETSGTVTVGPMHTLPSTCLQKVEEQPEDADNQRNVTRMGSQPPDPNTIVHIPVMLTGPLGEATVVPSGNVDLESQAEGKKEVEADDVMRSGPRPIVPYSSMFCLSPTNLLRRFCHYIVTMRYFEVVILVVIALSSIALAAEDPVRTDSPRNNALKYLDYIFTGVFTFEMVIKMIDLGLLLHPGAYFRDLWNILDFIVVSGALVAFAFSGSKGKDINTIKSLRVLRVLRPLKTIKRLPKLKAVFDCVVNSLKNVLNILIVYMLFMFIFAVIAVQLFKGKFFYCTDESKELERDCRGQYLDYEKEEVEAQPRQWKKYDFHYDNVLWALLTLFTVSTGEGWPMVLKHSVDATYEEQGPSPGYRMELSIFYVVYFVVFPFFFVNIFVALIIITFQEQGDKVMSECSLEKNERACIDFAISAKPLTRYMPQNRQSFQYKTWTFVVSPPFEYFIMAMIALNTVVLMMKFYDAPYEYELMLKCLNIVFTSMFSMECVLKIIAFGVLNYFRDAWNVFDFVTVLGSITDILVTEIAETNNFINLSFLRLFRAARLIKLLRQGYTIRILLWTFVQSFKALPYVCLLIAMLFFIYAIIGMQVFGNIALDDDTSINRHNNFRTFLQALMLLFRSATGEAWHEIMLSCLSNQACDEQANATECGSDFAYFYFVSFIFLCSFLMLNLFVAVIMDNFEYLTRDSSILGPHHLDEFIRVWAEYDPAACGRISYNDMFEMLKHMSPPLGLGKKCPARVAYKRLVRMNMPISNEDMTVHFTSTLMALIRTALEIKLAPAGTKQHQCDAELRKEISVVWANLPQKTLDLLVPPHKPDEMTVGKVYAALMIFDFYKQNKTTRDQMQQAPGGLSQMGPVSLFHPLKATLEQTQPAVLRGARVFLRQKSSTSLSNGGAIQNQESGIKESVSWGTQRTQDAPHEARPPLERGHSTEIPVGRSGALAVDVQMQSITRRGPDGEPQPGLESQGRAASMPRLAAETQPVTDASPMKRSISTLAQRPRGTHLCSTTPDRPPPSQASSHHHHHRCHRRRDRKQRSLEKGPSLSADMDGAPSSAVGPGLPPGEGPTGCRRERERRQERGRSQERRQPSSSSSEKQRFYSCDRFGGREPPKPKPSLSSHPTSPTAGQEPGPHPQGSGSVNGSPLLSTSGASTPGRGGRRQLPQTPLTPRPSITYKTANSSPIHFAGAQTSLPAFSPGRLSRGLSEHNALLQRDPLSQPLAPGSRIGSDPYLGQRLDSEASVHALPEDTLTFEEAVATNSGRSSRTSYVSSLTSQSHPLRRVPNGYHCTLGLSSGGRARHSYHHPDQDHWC

Compound	inhibition
O=c1[nH]c2cc3c(cc2cc1CN(Cc1ccccc1)Cc1nnnn1Cc1ccco1)OCCO3	inconclusive: 101%
CCOC(=O)CSc1cc(=O)n(C)c2cc(Cl)ccc12	inconclusive: 59.9%
O=C(Nc1ccccc1-c1nc2ccccc2s1)c1cccnc1Cl	inconclusive: 65.1%
CCc1ccc(NC(=O)Cn2nnc(C(=O)NCc3cccs3)c2N)cc1	inactive: 26.5%
COc1ccccc1N1C(=O)C2C(C(=O)c3ccccc3)=NN(c3ccccc3OC)C2C1=O (stereo not drawn)	inconclusive: 58.5%
CC1CCc2sc(C(=O)N(C)CC(=O)Nc3cccc(F)c3)cc2C1 (stereo not drawn)	inconclusive: 50.8%
C/C(=N\NC(=O)c1cccs1)c1ccc(C(=O)O)s1	inactive: 12.5%
Cc1ccc(S(=O)(=O)CC(CN2CCCCC2)N2CCCCC2)cc1 (stereo not drawn)	inconclusive: 53%
Cc1nc2ccc(NC(=O)N3CCN(c4ccccn4)CC3)cc2s1	inconclusive: 50%
CC1(C)CC(=O)C2=C(C1)OC(N)=C(C#N)C2c1cccs1 (stereo not drawn)	inconclusive: 56.1%
O=C(CN1C(=O)C2C3C=CC(C4CC34)C2C1=O)Oc1ccccc1 (stereo not drawn)	inactive: -1.6%
CCC(C)(C)n1nnnc1C(c1cccs1)N1CCN(Cc2ccccc2)CC1 (stereo not drawn)	inconclusive: 68.3%
CN(C)S(=O)(=O)c1cccc(NC(=O)c2ccncc2)c1	inactive: 8.6%
CC(c1nnc(SCC(=O)Nc2cccnc2Cl)n1Cc1ccccc1)N(C)C (stereo not drawn)	inactive: 1%
O=C(O)CCn1c(O)c(C=C2N=c3ccccc3=N2)sc1=S	inconclusive: 53.4%
O=S(=O)(c1ccc(Cl)cc1)N1CCCc2ccccc21	inconclusive: 69.6%
CCC(=O)N1CC2(C)CN(C(=O)CC)CC(C)(C1)C2	inactive: -2.6%
O=C1c2cccc3c(O)ccc(c23)C(=O)N1Cc1ccccc1	inconclusive: 52.4%
Cc1ccc(NC(=O)CN(C)c2ccc(S(=O)(=O)N3CCCC3)cn2)cc1	inactive: -2.9%
O=C(c1ccccc1)c1nn(-c2ccc(Cl)cc2)cc1C(=O)c1cc2ccccc2oc1=O	inconclusive: 58.3%
Cc1ccc2sc(N(CCCN(C)C)C(=O)CN3C(=O)c4ccccc4C3=O)nc2c1C	inconclusive: 89.9%
N#CC1=C2SCN(c3ccccc3)CN2C(=O)CC1c1cccs1 (stereo not drawn)	inactive: 74%

Compound	inhibition
CNc1ccc(C(O)(C(F)(F)F)C(F)(F)F)cc1C(O)(C(F)(F)F)C(F)(F)F	inconclusive: 50%
Cc1nn(Cc2noc(C(=O)NCCc3ccccn3)n2)c(C)c1Br	inactive: 7.3%
CCNC(=O)CN1c2cccc3cccc(c23)S1(=O)=O	inconclusive: 59.8%
CCC(=O)Nc1ccc(C(=O)CSc2nc3ccc(C)cc3[nH]2)cc1	inactive: 32.1%
Cc1c(Cl)sn(-c2ccc(Cl)cc2)c1=O	active: 79.2%
Cc1ccc(C(=O)OCC(=O)Nc2ccccc2Sc2ccccc2)cc1C	inconclusive: 53.4%
COCCn1nnnc1C(c1cccs1)N1CCN2CCCC2C1 (stereo not drawn)	inconclusive: 62%
CC(/C=N/NC(=O)c1cc(-c2ccc3ccccc3c2)n[nH]1)=C\c1ccco1	active: 73.3%
CCc1ccc(C(C(=O)NCc2ccc(OC)cc2)N(CCOC)C(=O)Cc2cccs2)cc1 (stereo not drawn)	inconclusive: 86.3%
CCOc1ccc(N2C(=O)CC(N3CCN(C(=O)CN4CCCC4)CC3)C2=O)cc1 (stereo not drawn)	inconclusive: 61.6%
CCc1cc2c(=O)nc3n(c2s1)Cc1ccccc1/C3=C(/O)c1ccc(F)cc1	inconclusive: 57.1%
O=Cc1cccn1-c1c(C(=O)O)cnn1-c1ccccc1	inconclusive: 72.2%
COc1ccc(OC)c(C(=O)Cn2nnc(-c3ccc(N4CCOCC4)cc3)n2)c1	inconclusive: 83.3%
CCc1ccc(S(=O)(=O)NCCc2csc(-c3ccccc3)n2)s1	inconclusive: 58.7%
Cc1ccc(/C=C/C2=Cc3c(sc(NC(=O)CSc4n[nH]c(N)n4)c3C#N)C(C)(C)C2)o1	active: 61.1%
CCn1cc(CN2CCCC(C(=O)c3ccc(-c4ccccc4)c(F)c3)C2)cn1 (stereo not drawn)	inactive: 6.5%
COC(=O)Cc1cc(=O)oc2c(C)c(O)ccc12	inconclusive: 52.7%
CCOC(=O)c1ccc2[nH]c3c(c2c1)CCCC3O (stereo not drawn)	inconclusive: 51.1%
C[C@@H](C(=O)Nc1ccccc1N1CCOCC1)N1C(=O)C2CC=CCC2C1=O (stereo partly drawn)	inconclusive: 95.3%
Cc1ccc(N2C(=O)c3ccc(C(=O)O)cc3C2=O)cc1C	inactive: -1.3%
CCOc1ccc(S(=O)(=O)c2c(C(=O)c3ccccc3)cnc3cc4c(cc23)OCCO4)cc1	inconclusive: 61.9%
CC1(c2cc([N+](=O)[O-])cc([N+](=O)[O-])c2)CC(C)(C)N(C(=O)c2ccccc2)c2ccccc21 (stereo not drawn)	inconclusive: 53.4%

Among those listed so far, 6 contain a Cl atom:
Compound	inhibition
CCOC(=O)CSc1cc(=O)n(C)c2cc(Cl)ccc12	inconclusive: 59.9%
O=C(Nc1ccccc1-c1nc2ccccc2s1)c1cccnc1Cl	inconclusive: 65.1%
CC(c1nnc(SCC(=O)Nc2cccnc2Cl)n1Cc1ccccc1)N(C)C (stereo not drawn)	inactive: 1%
O=S(=O)(c1ccc(Cl)cc1)N1CCCc2ccccc21	inconclusive: 69.6%
O=C(c1ccccc1)c1nn(-c2ccc(Cl)cc2)cc1C(=O)c1cc2ccccc2oc1=O	inconclusive: 58.3%
Cc1c(Cl)sn(-c2ccc(Cl)cc2)c1=O	active: 79.2%

3 compounds already listed, sorted by SMILES length, high to low:
Compound	inhibition
CC1(c2cc([N+](=O)[O-])cc([N+](=O)[O-])c2)CC(C)(C)N(C(=O)c2ccccc2)c2ccccc21 (stereo not drawn)	inconclusive: 53.4%
O=C(c1ccccc1)c1nn(-c2ccc(Cl)cc2)cc1C(=O)c1cc2ccccc2oc1=O	inconclusive: 58.3%
C/C(=N\NC(=O)c1cccs1)c1ccc(C(=O)O)s1	inactive: 12.5%

Following part

Compound	inhibition
CCOCCCn1c(=S)[nH]c2cc(C(=O)NCCc3ccc(OC)c(OC)c3)ccc2c1=O	inconclusive: 83.7%
NC1=NC[C@@H](Cc2ccc(O)cc2)N1CCc1cccc(F)c1	inactive: 16.7%
Nc1nc2ccccc2n1C(=O)CCc1ccccc1	inconclusive: 52.7%
CCOc1ccc2[nH]c(=O)c(CN(Cc3cccs3)Cc3nnnn3C(C)(C)CC)cc2c1	inconclusive: 68.3%
Cc1c(C(=O)Nc2ccc(C(=O)Nc3ccccc3)cc2)cccc1[N+](=O)[O-]	inconclusive: 84.1%
O=C(NC(Cc1ccccc1)C(=O)Oc1ccc2c(C(F)(F)F)cc(=O)oc2c1)OCc1ccccc1 (stereo not drawn)	inconclusive: 67.8%
Cc1cc2cc(C)c(NCCNC(=O)c3ccccc3)nc2cc1C	inconclusive: 64.5%
Cc1cc(N2CCC(C(=O)NC3CCCCC3)CC2)nc(-c2ccccc2)n1	inactive: -4%
O=C1NC(=Nc2ccccc2)/C(=C/c2ccco2)S1	inactive: 24.1%
O=C(COC(=O)c1ccccc1Nc1ccccc1)NCc1ccco1	inconclusive: 57.1%
CCC(=O)N(CCc1ccc(OC)c(OC)c1)Cc1cc2ccc(C)cc2n2nnnc12	inconclusive: 60.3%
Cc1cccc(NC(=S)N2CCC(O)CC2)c1C	inconclusive: 62.5%
CCOC(=O)CNC(=O)CSc1nnc(-c2ccccc2)c(-c2ccccc2)n1	inconclusive: 93.6%
O=C(CCc1ccc(O)c(O)c1)N/N=C/c1ccc2c(c1)OCO2	inconclusive: 75.8%
O=C(NC1CCC(O)CC1)c1cc(-c2ccco2)nc2ccccc12 (stereo not drawn)	active: 51.2%
CC(=O)c1sc(NC(=O)CCN2C(=O)c3ccccc3C2=O)nc1C	inactive: 14.5%
O=C(Nc1nnc(SCC(=O)N2CCCc3ccccc32)s1)c1cccc2ccccc12	inconclusive: 86.9%
CCCCCCn1c(=O)[nH]c2nc3cc(N)c(C)cc3nc2c1=O	inactive: 4.4%
Cc1cccc(NC(=O)CC(C)S(=O)(=O)c2ccc3c(c2)NC(=O)CO3)c1C (stereo not drawn)	inconclusive: 73.1%
CC(=O)N1N=C(c2cccs2)CC1c1cccs1 (stereo not drawn)	inconclusive: 54.7%
COc1cc(OC)c(OC)cc1CN(C)CCc1ccccn1	inconclusive: 79.8%
CCOC(=O)Cc1cc(=O)[nH]c(Nc2nc3ccccc3o2)n1	inconclusive: 52.9%

Compound	inhibition
CN(Cc1c(C(=O)N/N=C/c2cc(F)ccc2F)nnn1-c1nonc1N)C1CCCCC1	inconclusive: 59%
CCOc1ccc2nc(SC3CC(=O)N(c4ccc(OC)cc4OC)C3=O)sc2c1 (stereo not drawn)	inconclusive: 89%
Cc1cccc(-c2ccc(C=Nc3c(C)n(C)n(-c4ccccc4)c3=O)o2)c1	inconclusive: 59.5%
Cn1c(C(=O)N2CCc3ccccc3C2)cc2c(=O)n3ccccc3nc21	inconclusive: 53.3%
Cc1ccc(-c2cc(-c3ccco3)c3c(N)c(C(=O)NN)oc3n2)cc1	inactive: 55.5%
O=C(c1cccc(C(F)(F)F)c1)N1CCN(CCc2ccccc2)CC1	inconclusive: 82%
COc1ccc(/C=N\NC(=O)CNC(=O)C2COc3ccccc3O2)cc1[N+](=O)[O-] (stereo not drawn)	inconclusive: 52.5%
CC(=O)Nc1ccc(Sc2ncccc2C(=O)Nc2ccc(OC(F)(F)F)cc2)cn1	inconclusive: 60.9%
COc1cc(C(CCN2CCCC(C)C2)c2c(OC)cc(OC)c3c(-c4ccccc4)cc(=O)oc23)cc(OC)c1OC (stereo not drawn)	inconclusive: 51.4%
COc1cc(-c2cc(C(=O)Nc3c(Cl)cc(Cl)cc3Cl)c3ccccc3n2)cc(OC)c1OC	inconclusive: 63.9%
CC(C)(C)NC(=O)CN(C(=O)C1(C)CC(=O)N=C2C=CC=CN21)C1CCCC1 (stereo not drawn)	inactive: 9.2%
Cc1ccc2oc(-c3cc(NC(=O)c4ncn[nH]4)ccc3O)nc2c1	inconclusive: 52.2%
CCCCP(=O)(CCCC)Cc1ccccc1	inactive: -0.8%
Cc1cc(C)nc(SCc2nc3ncccn3c2Br)n1	inconclusive: 70.4%
CN(CC(CC(=O)O)c1ccccc1)S(=O)(=O)c1ccc(Br)cc1 (stereo not drawn)	inconclusive: 54.9%
O=C(Nc1cccc2ccccc12)c1cn(-c2ccccc2)nc1-c1cccs1	inconclusive: 57.6%
COc1ccc2c(c1)C(=O)N(c1ccccc1OC)C(=O)C2	inconclusive: 64.6%
CCC(=NCCc1ccc(OC)c(OC)c1)c1ccccc1O	inconclusive: 95.8%
Cc1nn(Cc2cccc(C(=O)NC3CCCCC3)c2)c(C)c1Cl	inconclusive: 60.4%
S=C(NCc1cccnc1)NCc1cccnc1	inactive: -3.7%
COc1ccc(S(N)(=O)=O)cc1C(=O)NC1CCCc2ccccc21 (stereo not drawn)	inconclusive: 55.3%
N#Cc1c(-c2ccco2)ccn(Cc2cccc(F)c2)c1=O	inconclusive: 71.7%

— PubChem BioAssay AID2073 (Sanford-Burnham Center for Chemical Genomics, 2009)
